# Patent publication US20220213144A1, “HALOGENATED ANTIMICROBIAL PEPTOIDS” (priority 2019, published 2022)
# Some entries share one result that the patent states for a list of compounds. Square brackets hold non-standard residues; d marks the D form. Peptide text beside a SMILES is read from it. Nphe = O=C(O)CNCc1ccccc1; Nlys = NCCCCNCC(=O)O
# System: S. aureus ATCC 25923
# Assay type: cell-based, Staphylococcus aureus
# Settings: strain not named
# Description: Bacterial growth inhibition was determined by using broth microdilution according to the Clinical Laboratory Standards Institute. The antibacterial activity of peptoids was tested against S. aureus ATCC 25923, ATCC29213, and methicillin resistant S. aureus USA 300, methicillin resistant S. epidermidis ATCC 51625, a biofilm producing methicillin resistant S. epidermidis […], P. aeruginosa Pa01 (H103), and E. coli ATCC 25922. Bacteria, grown on agar plates for 18 hours at 37° C., were diluted to ˜1×10^8 CFU/mL in Mueller-Hinton Broth II (MHB II). Twofold serial dilutions of peptoids in MHB II were inoculated with the bacteria to achieve a final concentration of 5×10^5 CFU/mL in polypropylene 96 U-well microtiter plates (Corning™ 3897; ThermoFisher Scientific, Roskilde), followed by incubation at 37° C. in ambient air for 18 hours. The MIC values were determined as the lowest concentration showing no visible bacterial growth. Experiments were performed twice (in technical triplicates) on different days.
row,SMILES,MIC against S. aureus [µg/mL]
1,NCCCCNCC(=O)N(CC(=O)N(CCCCN)CC(=O)N(CC(=O)N(CCCCN)CC(=O)N(CC(=O)N(CCCCN)CC(=O)N(CC(=O)N(CCCCN)CC(=O)N(CC(N)=O)Cc1ccccc1)Cc1ccccc1)Cc1ccccc1)Cc1ccccc1)Cc1ccccc1 [Compound 19] (H-[Nlys][Nphe][Nlys][Nphe][Nlys][Nphe][Nlys][Nphe][Nlys][Nphe]-NH2; N-terminus assumed),> 512
2,NCCCCNCC(=O)N(CC(=O)N(CCCCN)CC(=O)N(CC(=O)N(CCCCN)CC(=O)N(CC(N)=O)Cc1ccccc1)Cc1ccccc1)Cc1ccccc1 [Compound 1] (H-[Nlys][Nphe][Nlys][Nphe][Nlys][Nphe]-NH2; N-terminus assumed),> 512
